The source of these data is patent US20210032257A1, “(E)-1-(4-(DIMETHYLAMINO)BUT-2-ENOYL)PYRROLIDIN-3-YL 4-((3-ISOPROPYL-5-METHYLPYRAZOLO[1,5-A]PYRIMIDIN-7-YL)AMINO)PIPERIDINE-1-CARBOXYLATE FOR INHIBITING CDK7” (Eli Lilly and Company, priority 2017, published 2021).

The structures appear in SMILES notation.

Holding throughout (test): Biomarker study: distribution of anti-proliferation effects
What all share (assay type): cell-based

In data set [1] the test system is KMT2C mutants cancer cell lines. Here is the method: (§1) Cancer cell lines are profiled to evaluate the anti-proliferative activity of a test compound in-vitro. Mutation, copy number and gene expression information of ARID1A, KMT2C, KMT2D and/or RB1 genes across cancer cell lines is obtained from COSMIC database (cancer.sanger.ac.uk) and cBioportal (http://www.cbioportal.org/). Cells are cultured in growth medium and plated into a 96-well plate in 100 μL/well growth medium at 5000 cells/well then incubated at 37° C., 5% CO2 overnight. Cells are cultured using supplier recommended media and conditions well known in the art, for example with RPMI 1640 with or without HEPES & L-Glutamine (Thermo SH30255.01) and 1 mM Sodium Pyruvate, and 10% FBS(Gibco cat #10082). The 1000× intermediate dilution plate is prepared by making a 10 mM working solution of a test sample in DMSO and performing 1:3 dilutions in DMSO for 10 points. The 10× dosing plate is prepared by adding 2 μL from the 1000× intermediate dilution plate to 198 μL of OPTIMEM®+10% FBS and mixing well. The cell plate is then treated by adding 11 μL from the 10× dosing plate into the 100 μL/well cell plate for a 1× final concentration. Staurosporine is used as a maximum growth inhibition control at a final concentration of 5 μM. The cell plate is incubated for 7 days at 37° C., 5% CO2. Seven days after treatment, Cell Titer-Glo® (Promega cat #G7571) assay buffer and substrate are removed from −20° C. and allowed to equilibrate to RT. Assay buffer is added to the substrate and swirled gently to mix. The CELL TITER-GLO® reagent (100 μL/well) is added to the cell plate and incubated at RT for 15 minutes. After 15 minutes, luminescence is read using a plate reader. Data is analyzed in Excel and graphed in GraphPad Prism. Statistical analysis and p value is calculated using Mann-Whitney nonparameteric t tests using GraphPad Prism.
(§2) Anti-proliferative effects of a test compound are categorized as insensitive (IC50≥1 μM), cytostatic (IC50<1 μM and % inhibition <70%) or cytotoxic (IC50<1 μM and % inhibition ≥70%).

Data set [2] deals with RB1 mutants cancer cell lines. As for the experimental part:
as §1, §2

For data set [3], the system named is Others (cancer cell lines). Here is the method: as §1, §2
Data set [4] has as its system KMT2D mutants cancer cell lines. Here is the method: as §1, §2
The subject of data set [5] is ARID1A mutants cancer cell lines. Here is the method:
as §1, §2

For `Cc1cc(NC2CCN(C(=O)O[C@H]3CCN(C(=O)/C=C/CN(C)C)C3)CC2)n2ncc(C(C)C)c2n1` [Example 1, [(3S)-1-[(E)-4-(dimethylamino)but-2-enoyl]pyrrolidin-3-yl] 4-[(3-isopropyl-5-methyl-pyrazolo[1,5-a]pyrimidin-7-yl)amino]piperidine-1-carboxylate], the “Distribution (%) of anti-proliferation effects: Cytostatic (IC50 <1 μM, % Inh. <70)” value in data set [1] is 20%, n = 2; in data set [2] it was 37%, n = 15; in data set [3], 44%, n = 45; in data set [4], 12%, n = 3; in data set [5], 23%, n = 9. In addition, the “Distribution (%) of anti-proliferation effects: Insensitive (lC50 ≥1 μM, % Inh. <70)” value in data set [1] is 10%, n = 1; in data set [2], 10%, n = 4; in data set [3], 17%, n = 17; in data set [4], 12%, n = 3; in data set [5], 13%, n = 5.
